PubChem BioAssay AID720710 – VTT Finland – 2013
Shown is one part, drawn at random, of about 1,380 reagents. 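One array per condition without replicates; hydroxyurea arrays received 2 mM for 16 h plus 3 h recovery.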 Reagents against one gene are numbered here.

Aim: 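siRNAs sensitising CCNE1-overexpressing U-2 OS cells to replication stress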 (primary screen)
System: human U-2 OS bone cancer cells, parental and a cyclin E (CCNE1) overexpressing line
Reagent: single siRNA against human genes, 1 µM siRNA in the printed spot mix
Duration: 67 h
Treatment: half the arrays: hydroxyurea 2 mM for 16 h, then 3 h recovery; other arrays untreated
Detection: 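EdU click signal imaged per DAPI-stained nucleus at 67 h; each spot divided by its subgrid median, then z-scored relative to non-targeting control spots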
Direction: EdU z-score, cyclin E line, hydroxyurea and EdU z-score, parental, hydroxyurea and EdU z-score, cyclin E line, untreated and EdU z-score, parental, untreated: higher = more DNA synthesis than non-targeting controls

The opening 7 entries, ahead of the listing:
| EdU z-score, cyclin E line, hydroxyurea | EdU z-score, parental, hydroxyurea | EdU z-score, cyclin E line, untreated | EdU z-score, parental, untreated | Gene | reagent |
| --- | --- | --- | --- | --- | --- |
| -3.29 | -0.544 | -3.13 | -0.213 | UBE2I (ubiquitin conjugating enzyme E2 I) | 1 |
| -0.0378 | 0.367 | 0.37 | -0.0131 | UBE2I (ubiquitin conjugating enzyme E2 I) | 2 |
| -1.94 | 0.832 | -2.74 | -1.15 | HMOX1 (heme oxygenase 1) | 1 |
| 0.0529 | 1.03 | -1.05 | 0.124 | HMOX1 (heme oxygenase 1) | 2 |
| -1.92 | -1.87 | -0.695 | -2.34 | PRMT8 (protein arginine methyltransferase 8) | 1 |
| -1.15 | 1.79 | 0.159 | 2.38 | PRMT8 (protein arginine methyltransferase 8) | 2 |
| -1.25 | -3.49 | -0.253 | -1.66 | SMC1A (structural maintenance of chromosomes 1A) | 1 |

The list itself, from the first entry:
| EdU z-score, cyclin E line, hydroxyurea | EdU z-score, parental, hydroxyurea | EdU z-score, cyclin E line, untreated | EdU z-score, parental, untreated | Gene | reagent |
| --- | --- | --- | --- | --- | --- |
| -3.29 | -0.544 | -3.13 | -0.213 | UBE2I (ubiquitin conjugating enzyme E2 I) | 1 |
| -0.0378 | 0.367 | 0.37 | -0.0131 | UBE2I (ubiquitin conjugating enzyme E2 I) | 2 |
| -1.94 | 0.832 | -2.74 | -1.15 | HMOX1 (heme oxygenase 1) | 1 |
| 0.0529 | 1.03 | -1.05 | 0.124 | HMOX1 (heme oxygenase 1) | 2 |
| -1.92 | -1.87 | -0.695 | -2.34 | PRMT8 (protein arginine methyltransferase 8) | 1 |
| -1.15 | 1.79 | 0.159 | 2.38 | PRMT8 (protein arginine methyltransferase 8) | 2 |
| -1.25 | -3.49 | -0.253 | -1.66 | SMC1A (structural maintenance of chromosomes 1A) | 1 |
| -0.594 | -0.0195 | 1.85 | 0.639 | SMC1A (structural maintenance of chromosomes 1A) | 2 |
| -0.374 | -1.3 | -1.33 | -0.254 | CRY2 (cryptochrome circadian regulator 2) | 1 |
| -0.0468 | -0.685 | -0.724 | 0.264 | CRY2 (cryptochrome circadian regulator 2) | 2 |
| 0.0952 | -0.767 | -6.22 | 0.061 | LOC731751 | 1 |
| 1.9 | 0.806 | -3.57 | 2.17 | LOC731751 | 2 |
| -0.606 | -3.88 | -0.552 | -0.22 | KAT2B (lysine acetyltransferase 2B) | 1 |
| 1.28 | -2.42 | -0.0992 | 0.192 | KAT2B (lysine acetyltransferase 2B) | 2 |
| 0.87 | -4.67 | -0.872 | -0.0685 | FOXO3 (forkhead box O3) | 1 |
| 0.898 | -0.0414 | -0.826 | 0.0883 | FOXO3 (forkhead box O3) | 2 |
| -0.717 | -4.51 | -1.41 | 0.379 | FANCL (FA complementation group L) | 1 |
| -0.382 | -1.53 | 1.22 | 3.96 | FANCL (FA complementation group L) | 2 |
| -2.68 | -1.19 | -1.65 | 0.211 | SLK (STE20 like kinase) | 1 |
| 1.24 | 1.56 | -0.0573 | 0.555 | SLK (STE20 like kinase) | 2 |
| -1.45 | 0.729 | -0.342 | -3.67 | PPP2CA (protein phosphatase 2 catalytic subunit alpha) | 1 |
| 3.36 | 1.12 | 0.268 | 0.744 | PPP2CA (protein phosphatase 2 catalytic subunit alpha) | 2 |
| 0.196 | -1.42 | -0.905 | 0.126 | DDB1 (damage specific DNA binding protein 1) | 1 |
| 1.1 | 0.0753 | 1.73 | 0.575 | DDB1 (damage specific DNA binding protein 1) | 2 |
| 0.231 | -1.25 | -1.48 | -0.787 | CHAF1A (chromatin assembly factor 1 subunit A) | 1 |
| 0.856 | 1.38 | -0.14 | 0.164 | CHAF1A (chromatin assembly factor 1 subunit A) | 2 |
| 0.612 | 0.958 | -1.68 | -0.348 | SOX15 (SRY-box transcription factor 15) | 1 |
| 0.809 | 1.16 | -1.36 | 0.722 | SOX15 (SRY-box transcription factor 15) | 2 |
| -2.29 | -2.91 | -1.33 | -2.16 | TERF2 (telomeric repeat binding factor 2) | 1 |
| -0.0542 | -0.33 | -0.651 | 0.497 | TERF2 (telomeric repeat binding factor 2) | 2 |
| -1.19 | -1.99 | -0.212 | -2.52 | CHEK1 (checkpoint kinase 1) | 1 |
| 0.676 | -1.2 | 0.2 | 1.66 | CHEK1 (checkpoint kinase 1) | 2 |
| -2.75 | -2.61 | -0.87 | -1.57 | MPG (N-methylpurine DNA glycosylase) | 1 |
| 1.44 | 0.289 | 0.145 | -0.8 | MPG (N-methylpurine DNA glycosylase) | 2 |
| -1.39 | -2.12 | -0.971 | -0.727 | SATB2 (SATB homeobox 2) | 1 |
| -0.16 | -0.872 | 1.71 | -0.665 | SATB2 (SATB homeobox 2) | 2 |
| -0.5 | 0.767 | -1.34 | -1.35 | PSMC1 (proteasome 26S subunit, ATPase 1) | 1 |
| 0.344 | 1.76 | -1.08 | -0.34 | PSMC1 (proteasome 26S subunit, ATPase 1) | 2 |
| -0.183 | -0.276 | -0.981 | -0.382 | FHIT (fragile histidine triad diadenosine triphosphatase) | 1 |
| 0.883 | 1.27 | -0.229 | -0.113 | FHIT (fragile histidine triad diadenosine triphosphatase) | 2 |
| -0.541 | -4.38 | -3.02 | -1.72 | H1-4 (H1.4 linker histone, cluster member) | 1 |
| 0.00203 | 1.29 | 0.518 | -0.88 | H1-4 (H1.4 linker histone, cluster member) | 2 |
| -0.386 | -0.757 | -0.714 | -2.47 | ZNF319 (zinc finger protein 319) | 1 |
| 0.184 | 1.6 | -0.274 | 0.252 | ZNF319 (zinc finger protein 319) | 2 |
| -2.41 | -1.28 | -3 | -1.42 | APEX2 (apurinic/apyrimidinic endodeoxyribonuclease 2) | 1 |
| -0.899 | 1.4 | -0.454 | 0.641 | APEX2 (apurinic/apyrimidinic endodeoxyribonuclease 2) | 2 |
| -1.26 | 0.466 | -1.57 | 0.426 | SMARCAD1 (SNF2 related chromatin remodeling ATPase with DExD box 1) | 1 |
| 1.13 | 1.86 | -0.433 | 0.508 | SMARCAD1 (SNF2 related chromatin remodeling ATPase with DExD box 1) | 2 |
| -1.64 | -4.57 | -2.34 | -0.729 | NFIX (nuclear factor I X) | 1 |
| -0.339 | -0.853 | -1.31 | -0.235 | NFIX (nuclear factor I X) | 2 |
| -0.623 | -2.36 | -1.04 | -2.07 | ASTE1 (asteroid structure-specific endonuclease 1) | 1 |
| -0.567 | 1.83 | -0.438 | -0.568 | ASTE1 (asteroid structure-specific endonuclease 1) | 2 |
| -1.74 | -1.38 | -1.69 | -1.42 | CNOT12 (CCR4-NOT transcription complex subunit 12) | 1 |
| -0.409 | 1.57 | -0.754 | -1.06 | CNOT12 (CCR4-NOT transcription complex subunit 12) | 2 |
| 0.519 | -2.58 | -4.56 | 1.56 | ENPP7 (ectonucleotide pyrophosphatase/phosphodiesterase 7) | 1 |
| 2.01 | 1.16 | -0.744 | 1.84 | ENPP7 (ectonucleotide pyrophosphatase/phosphodiesterase 7) | 2 |
| -0.785 | 1.09 | -0.982 | -0.473 | LOC653972 | 1 |
| 2.26 | 1.7 | -0.0221 | 1.66 | LOC653972 | 2 |
